Changes are numbered by the printed parent chain. Results are given in words; binding and its absence hold for the method and conditions named. Binding seen in cells or lysates may run through a third protein. Some results given as binding are weak or reduced against the parent protein; the word gives no strength.
Tests used:
[1] = biological target: T1, SFB-MARCH5 2KR (UniProt Q9NX47); test: pull-down; SFB-MARCH5 captured on Streptavidin-Sepharose from lysates of HEK293T cells cotransfected with TFAM-FokI WT (mtDSBs induced), harvested 36 h later; MG132 cotreatment for SFB-MARCH5 2KR; NETN buffer (50 mM Tris-HCl pH 8.0, 150 mM NaCl, 0.5% NP-40, 5 mM EDTA), 1 h at 4 °C; Western blot
T1 sequence: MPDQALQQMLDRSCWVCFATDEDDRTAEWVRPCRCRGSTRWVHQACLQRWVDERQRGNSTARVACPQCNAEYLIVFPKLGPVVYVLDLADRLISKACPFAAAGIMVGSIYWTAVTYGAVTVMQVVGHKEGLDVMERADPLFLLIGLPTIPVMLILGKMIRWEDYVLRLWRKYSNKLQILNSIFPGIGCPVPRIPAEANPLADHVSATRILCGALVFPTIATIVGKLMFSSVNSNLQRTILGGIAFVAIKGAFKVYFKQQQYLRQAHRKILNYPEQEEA

Amino acid sequences for entries named in this document (tags omitted).
UniProt P78527: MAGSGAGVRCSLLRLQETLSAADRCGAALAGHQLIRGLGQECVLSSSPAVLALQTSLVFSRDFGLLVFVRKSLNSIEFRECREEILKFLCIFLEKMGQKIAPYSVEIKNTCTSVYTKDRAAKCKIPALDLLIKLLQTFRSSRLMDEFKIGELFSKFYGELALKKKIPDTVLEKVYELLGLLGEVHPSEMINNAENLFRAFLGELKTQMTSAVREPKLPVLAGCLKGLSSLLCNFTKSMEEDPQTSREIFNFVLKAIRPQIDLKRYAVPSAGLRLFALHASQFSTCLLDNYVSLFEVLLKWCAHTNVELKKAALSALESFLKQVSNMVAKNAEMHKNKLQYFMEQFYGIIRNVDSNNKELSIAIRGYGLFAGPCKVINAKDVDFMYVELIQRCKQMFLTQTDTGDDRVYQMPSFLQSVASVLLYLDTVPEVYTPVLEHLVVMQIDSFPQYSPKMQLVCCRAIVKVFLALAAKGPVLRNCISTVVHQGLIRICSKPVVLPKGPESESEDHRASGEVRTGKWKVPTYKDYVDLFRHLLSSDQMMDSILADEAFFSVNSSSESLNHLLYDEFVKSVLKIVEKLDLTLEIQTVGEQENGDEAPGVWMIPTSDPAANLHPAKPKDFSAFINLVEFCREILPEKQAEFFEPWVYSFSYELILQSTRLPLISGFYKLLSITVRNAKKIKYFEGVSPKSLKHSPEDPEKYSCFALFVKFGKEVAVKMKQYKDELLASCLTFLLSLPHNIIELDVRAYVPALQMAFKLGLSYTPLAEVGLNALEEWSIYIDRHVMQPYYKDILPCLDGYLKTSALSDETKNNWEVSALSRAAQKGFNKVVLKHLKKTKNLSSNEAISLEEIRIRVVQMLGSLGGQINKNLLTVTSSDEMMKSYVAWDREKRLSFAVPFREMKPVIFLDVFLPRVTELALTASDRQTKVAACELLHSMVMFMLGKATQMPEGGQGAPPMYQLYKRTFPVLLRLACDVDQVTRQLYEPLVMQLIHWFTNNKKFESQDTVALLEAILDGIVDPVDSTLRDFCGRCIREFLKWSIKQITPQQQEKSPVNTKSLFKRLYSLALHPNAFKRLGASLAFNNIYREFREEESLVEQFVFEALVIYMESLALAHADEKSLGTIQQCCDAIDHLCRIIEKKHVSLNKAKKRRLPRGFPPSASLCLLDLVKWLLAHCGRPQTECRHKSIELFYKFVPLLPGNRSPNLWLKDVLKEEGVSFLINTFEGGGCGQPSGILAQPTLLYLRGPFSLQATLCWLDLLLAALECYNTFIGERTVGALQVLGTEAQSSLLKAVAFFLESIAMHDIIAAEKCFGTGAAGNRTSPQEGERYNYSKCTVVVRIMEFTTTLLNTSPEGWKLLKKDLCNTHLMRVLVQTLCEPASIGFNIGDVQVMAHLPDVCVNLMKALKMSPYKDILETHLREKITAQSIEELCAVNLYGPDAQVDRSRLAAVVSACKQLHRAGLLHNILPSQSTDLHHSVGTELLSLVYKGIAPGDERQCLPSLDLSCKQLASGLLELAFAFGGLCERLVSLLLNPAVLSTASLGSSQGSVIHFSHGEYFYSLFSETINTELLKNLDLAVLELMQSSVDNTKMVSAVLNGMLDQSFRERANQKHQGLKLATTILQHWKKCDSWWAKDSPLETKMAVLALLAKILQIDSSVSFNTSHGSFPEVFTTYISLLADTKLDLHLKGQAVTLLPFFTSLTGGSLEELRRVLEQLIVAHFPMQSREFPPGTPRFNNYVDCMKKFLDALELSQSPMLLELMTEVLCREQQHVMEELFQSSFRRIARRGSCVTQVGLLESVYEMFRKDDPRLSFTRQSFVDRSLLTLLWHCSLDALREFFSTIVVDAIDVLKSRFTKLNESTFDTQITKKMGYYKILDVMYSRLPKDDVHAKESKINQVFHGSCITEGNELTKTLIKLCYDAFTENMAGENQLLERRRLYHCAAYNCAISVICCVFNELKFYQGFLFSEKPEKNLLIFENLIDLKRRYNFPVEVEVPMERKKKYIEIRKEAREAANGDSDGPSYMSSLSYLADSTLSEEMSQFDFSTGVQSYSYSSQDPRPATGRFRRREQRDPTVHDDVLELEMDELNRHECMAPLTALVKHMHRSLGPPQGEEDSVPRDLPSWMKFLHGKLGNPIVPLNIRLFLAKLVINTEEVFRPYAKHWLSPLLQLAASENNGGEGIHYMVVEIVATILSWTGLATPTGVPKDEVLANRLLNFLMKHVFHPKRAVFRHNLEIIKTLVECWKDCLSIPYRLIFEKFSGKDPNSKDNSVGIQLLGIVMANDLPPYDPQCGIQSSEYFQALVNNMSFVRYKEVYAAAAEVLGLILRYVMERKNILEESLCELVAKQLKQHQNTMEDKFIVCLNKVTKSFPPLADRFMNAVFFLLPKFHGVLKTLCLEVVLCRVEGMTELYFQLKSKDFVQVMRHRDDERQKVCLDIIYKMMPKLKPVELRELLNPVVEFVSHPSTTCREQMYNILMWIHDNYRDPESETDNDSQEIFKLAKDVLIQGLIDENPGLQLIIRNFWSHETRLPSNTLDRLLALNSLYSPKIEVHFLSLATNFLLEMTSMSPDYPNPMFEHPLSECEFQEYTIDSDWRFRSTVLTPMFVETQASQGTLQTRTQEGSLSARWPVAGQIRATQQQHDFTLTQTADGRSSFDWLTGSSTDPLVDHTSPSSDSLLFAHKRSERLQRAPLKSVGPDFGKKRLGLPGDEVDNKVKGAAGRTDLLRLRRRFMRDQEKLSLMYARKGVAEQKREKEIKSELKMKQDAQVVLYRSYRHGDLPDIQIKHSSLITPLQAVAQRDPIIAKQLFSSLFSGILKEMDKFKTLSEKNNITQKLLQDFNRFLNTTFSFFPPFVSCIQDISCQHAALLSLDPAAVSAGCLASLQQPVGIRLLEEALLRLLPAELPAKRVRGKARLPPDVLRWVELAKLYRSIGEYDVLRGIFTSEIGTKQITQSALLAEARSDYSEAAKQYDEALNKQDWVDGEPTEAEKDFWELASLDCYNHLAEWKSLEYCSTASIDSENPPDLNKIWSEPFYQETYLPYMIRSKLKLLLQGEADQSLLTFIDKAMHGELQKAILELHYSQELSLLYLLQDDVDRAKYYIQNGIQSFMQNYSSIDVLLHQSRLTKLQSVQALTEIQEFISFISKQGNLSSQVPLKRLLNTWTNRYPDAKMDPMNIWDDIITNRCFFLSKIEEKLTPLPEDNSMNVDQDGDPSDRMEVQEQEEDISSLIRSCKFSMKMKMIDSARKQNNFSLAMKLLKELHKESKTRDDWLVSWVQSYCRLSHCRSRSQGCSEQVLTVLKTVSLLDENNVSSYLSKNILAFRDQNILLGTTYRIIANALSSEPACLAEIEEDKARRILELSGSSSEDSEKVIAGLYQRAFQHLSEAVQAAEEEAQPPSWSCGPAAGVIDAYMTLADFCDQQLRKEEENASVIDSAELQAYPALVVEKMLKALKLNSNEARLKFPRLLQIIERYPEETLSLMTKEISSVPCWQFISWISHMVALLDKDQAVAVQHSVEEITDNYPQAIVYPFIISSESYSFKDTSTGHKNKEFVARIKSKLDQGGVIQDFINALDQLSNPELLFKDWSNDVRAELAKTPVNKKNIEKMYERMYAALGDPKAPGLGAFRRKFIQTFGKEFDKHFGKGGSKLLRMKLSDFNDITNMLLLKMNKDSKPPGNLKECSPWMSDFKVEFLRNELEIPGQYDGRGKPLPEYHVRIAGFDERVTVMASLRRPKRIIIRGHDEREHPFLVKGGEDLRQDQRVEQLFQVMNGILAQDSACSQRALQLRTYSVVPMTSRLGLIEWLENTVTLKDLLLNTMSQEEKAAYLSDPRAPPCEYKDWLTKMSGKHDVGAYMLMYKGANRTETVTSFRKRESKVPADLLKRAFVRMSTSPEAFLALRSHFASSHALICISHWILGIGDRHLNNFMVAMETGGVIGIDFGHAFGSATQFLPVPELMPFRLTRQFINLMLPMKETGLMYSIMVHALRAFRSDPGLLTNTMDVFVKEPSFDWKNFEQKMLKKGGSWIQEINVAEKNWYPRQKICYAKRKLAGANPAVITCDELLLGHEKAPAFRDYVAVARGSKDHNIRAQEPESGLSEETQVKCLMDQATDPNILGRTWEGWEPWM

[2] = biological target: T2, SFB-MARCH5 HW (UniProt Q9NX47); test: as above
T2 sequence: T1 sequence with R40K, H43W, R54K

[3] = biological target: T1, SFB-MARCH5 2KR; test: condition: only cells expressing catalytically inactive TFAM-FokI MT (no mtDSBs, DNA-PKcs not activated); pull-down; as a1, but cells cotransfected with catalytically inactive TFAM-FokI MT (no mtDSBs); SFB-MARCH5 captured on Streptavidin-Sepharose, NETN buffer, 1 h at 4 °C; Western blot
[4] = biological target: T2, SFB-MARCH5 HW; test: as above

“DNA-dependent protein kinase, catalytic subunit (DNA-PKcs) (from UniProt P78527 1-4128) (enzyme)” was tested. Which binding [1] did it give?
Its binding is “binds”.

What about the binding [2] of the same substance?
The binding was “binds”.

What about the binding [3] of the same substance?
Its binding is “no binding”.

And the binding [4]?
The binding was “no binding”.

From PMC10692114
